Source: PMC7819943, “Rice protein-binding microarrays: a tool to detect cis-acting elements near promoter regions in rice”
Some of the results follow.

Chains of the proteins cited; added tags and fusions are not shown.
UniProt Q0JBA9, entry or part of it: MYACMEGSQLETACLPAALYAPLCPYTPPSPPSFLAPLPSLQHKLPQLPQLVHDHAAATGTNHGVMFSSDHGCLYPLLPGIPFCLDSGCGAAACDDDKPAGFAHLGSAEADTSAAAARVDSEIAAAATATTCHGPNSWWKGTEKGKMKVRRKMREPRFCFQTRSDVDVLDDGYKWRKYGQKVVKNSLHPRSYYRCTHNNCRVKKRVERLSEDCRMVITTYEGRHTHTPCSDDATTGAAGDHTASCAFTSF

The sequences below were run against OsWRKY34 (Oryza sativa, UniProt Q0JBA9 1-250) (assay: protein-binding microarray (RPBM); PBS, 2% BSA, 51.3 ng/ul salmon testes DNA, 50 uM zinc acetate, 200 nM TF, 25 C, 1 h; high values mean tight binding). Details: protein: recombinant; tags: N-terminal polyhistidine and DsRed monomer fusion (pET32a); label: CyDye5-dUTP incorporated in the synthesized complementary strand; 3' TTTTT single-stranded linker to array surface; dsDNA, one strand shown.
Procedure, shortened: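 An Axon 4000B scanner gave the binding signal as per-feature fluorescence intensity in arbitrary units. This followed washing of a custom Agilent array that had been incubated for 1 h at 25 °C with 200 nM protein in PBS, 2% BSA, salmon testes DNA and 50 µM zinc acetate. The proteins were transcription factors fused at the N-terminus to polyhistidine and DsRed, expressed in E. coli BL21-CodonPlus and purified on Ni–NTA.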
For “CGGGGTGATTCATTCGGGTTCCTGTAGCTACACGCAGTGTCGGAGTCACCTAGTGCAG”, the binding signal was 9190 fluorescence intensity (a.u.).
With “TCGGTTTTTCCCATTTGCGCGATTGCCCGGACCGATTTCTCGGAGTCACCTAGTGCAG” the binding signal was 11000 fluorescence intensity (a.u.).
“GTTGAAACTTTTTTATTTCCTTAGTTCCTTTTTTTCATCACGGAGTCACCTAGTGCAG” was tested, and the binding signal was 9560 fluorescence intensity (a.u.).
With “GGTGTTTTTCACGCGCGGTCCCCTTCCATGTTGGGGTATTCGGAGTCACCTAGTGCAG” the binding signal was 15500 fluorescence intensity (a.u.).
With “CACGTCGTCGATGCCTTTTCGTTGTTCGCGTCGGGTTCACCGGAGTCACCTAGTGCAG” the binding signal was 9440 fluorescence intensity (a.u.).
For “CTGCCGCTCTGGTTCTCCAACTCTGCATACATATACCTCTCGGAGTCACCTAGTGCAG”, the binding signal was 12000 fluorescence intensity (a.u.).
“CTCCTGCTTCTCTGTTCTTTCCATTCTCCTCCTTTTTTTCCGGAGTCACCTAGTGCAG” was tested, and the binding signal was 14600 fluorescence intensity (a.u.).
“TCCGTTCCATCGTAATCCTTCTCCGATCCGAATTTGCTTCCGGAGTCACCTAGTGCAG” was tested, and the binding signal was 9120 fluorescence intensity (a.u.).
In the case of “CCATCCTCCCCTCCTGCTCGGTTGTTTTCGCTTCAGGTTCCGGAGTCACCTAGTGCAG”, the binding signal is reported as 9210 fluorescence intensity (a.u.).
In the case of “CGGGGTATTAGAACTGGCGGGTGTATTTGCTATATTTAGTCGGAGTCACCTAGTGCAG”, the binding signal is reported as 15100 fluorescence intensity (a.u.).
With “TCCGCCTCAGCGTCTTAAATGCAACATCTAACTCTCACCACGGAGTCACCTAGTGCAG” the binding signal was 8180 fluorescence intensity (a.u.).
With “TTTGCGGCCGGCTCCTCTCGTTCCAGGGATGCATGATCATCGGAGTCACCTAGTGCAG” the binding signal was 9020 fluorescence intensity (a.u.).
In the case of “TAGCTAGTTACCTTCAATTGCTGTTCGTTTTGCCAAATTACGGAGTCACCTAGTGCAG”, the binding signal is reported as 8900 fluorescence intensity (a.u.).
“CTCTCGCCGCCACCCCGGCCCGCGCGCGCAAGCAACCTTACGGAGTCACCTAGTGCAG” was tested, and the binding signal was 8460 fluorescence intensity (a.u.).
“TCCTCCTCTCCTCTTCTCCCTCCTGCGCCGCCGCCACCTCCGGAGTCACCTAGTGCAG” was tested, and the binding signal was 9100 fluorescence intensity (a.u.).
For “TGTCTGCGCTACAGTGCTACCTGTTCATTCTCCGGTAGCCCGGAGTCACCTAGTGCAG”, the binding signal was 10000 fluorescence intensity (a.u.).
With “TAGCTCATTCATGCCTCCATCGGTTGACTTTTTTTTTCTACGGAGTCACCTAGTGCAG” the binding signal was 20500 fluorescence intensity (a.u.).
In the case of “TAAGCTGGCTACAAGTCTATAGCCGCTGCTCTTATCTCTCCGGAGTCACCTAGTGCAG”, the binding signal is reported as 8100 fluorescence intensity (a.u.).
With “GACGGTTCCTGTAGTTTCCGCATCGACCACATCCTCGCGACGGAGTCACCTAGTGCAG” the binding signal was 8630 fluorescence intensity (a.u.).
“ACGAAATACTACCTCCATATTTTAATGTATCACACCGTTACGGAGTCACCTAGTGCAG” was tested, and the binding signal was 8090 fluorescence intensity (a.u.).
“TTCTTTTTAGATAAGTGCTACTTTTATTTTTCCTTCTATACGGAGTCACCTAGTGCAG” was tested, and the binding signal was 8390 fluorescence intensity (a.u.).
In the case of “TTGCCATCTCATTTCTTGCATCATCTCCTCCCAATTCCAACGGAGTCACCTAGTGCAG”, the binding signal is reported as 10300 fluorescence intensity (a.u.).
For “GTGGGTGGTCGGTCTGGTCGAAGGTGAGGGCAACCTCCGACGGAGTCACCTAGTGCAG”, the binding signal was 9100 fluorescence intensity (a.u.).
For “ACATTTATTCTCCGATCGCTTTCATAGCTTTTCCTTTTCTCGGAGTCACCTAGTGCAG”, the binding signal was 11500 fluorescence intensity (a.u.).
“ATTTGACATCACCCCTTATATACCCCTGAATTTTCATTTTCGGAGTCACCTAGTGCAG” was tested, and the binding signal was 11500 fluorescence intensity (a.u.).
With “TCTCTCCTGCCCAAGCGACGGCCGCCGCCGCGTGCCGTCCCGGAGTCACCTAGTGCAG” the binding signal was 10200 fluorescence intensity (a.u.).
In the case of “TCTCTAGTTTCTCGCACCACCTGCCTACATATCGCCACAGCGGAGTCACCTAGTGCAG”, the binding signal is reported as 11700 fluorescence intensity (a.u.).
“GAATTCCAATCAGAGACACGTCCATGTTCCATCATCGCCCCGGAGTCACCTAGTGCAG” was tested, and the binding signal was 8110 fluorescence intensity (a.u.).
With “TTTCTCCCTTCTGTGTTCCATCCCTAGTCCCCACGCCGGCCGGAGTCACCTAGTGCAG” the binding signal was 10400 fluorescence intensity (a.u.).
“CTCCAACACACCTCAACCTCACTTGGACATGTATGCATAGCGGAGTCACCTAGTGCAG” was tested, and the binding signal was 8470 fluorescence intensity (a.u.).
With “TGTGATTTTCTTGTGATTGGGATGTATGGTAATGCTAGGGCGGAGTCACCTAGTGCAG” the binding signal was 8150 fluorescence intensity (a.u.).
With “CACCAGTCAACTCATCCTAACTAACAGGCCTGCAATTCTTCGGAGTCACCTAGTGCAG” the binding signal was 8220 fluorescence intensity (a.u.).
For “TGAATTGGGAAATTTCGGTGTTTTTTTTCTTCTTTTTTTTCGGAGTCACCTAGTGCAG”, the binding signal was 8740 fluorescence intensity (a.u.).
In the case of “CAATTTCCCGCGCGCTGTCACGCTCACACAGTTGAGCTCCCGGAGTCACCTAGTGCAG”, the binding signal is reported as 9920 fluorescence intensity (a.u.).
For “CTTTATGTTCAATTTCTCTCATACTAGTGACCATGTATTTCGGAGTCACCTAGTGCAG”, the binding signal was 8510 fluorescence intensity (a.u.).
In the case of “GAAAAACTCGTTTCTGGACATCTGCAGATGCATTCTTTCTCGGAGTCACCTAGTGCAG”, the binding signal is reported as 8640 fluorescence intensity (a.u.).
With “TGATGTGTGGGTGGTGGTGGTGGTGTGCCTTGTGTAGGTACGGAGTCACCTAGTGCAG” the binding signal was 20800 fluorescence intensity (a.u.).
“ATATTATATAGGGTATCATATGGGGTGTTTGGGCACTAATCGGAGTCACCTAGTGCAG” was tested, and the binding signal was 10100 fluorescence intensity (a.u.).
With “GGCTAGTCAGGTCACGCTTCGCACGAGTGCTTCTCCCTCACGGAGTCACCTAGTGCAG” the binding signal was 8430 fluorescence intensity (a.u.).
For “GGTGTCACCTCCTCTATCTTAGTAACTTGGCCAACTCTTCCGGAGTCACCTAGTGCAG”, the binding signal was 8850 fluorescence intensity (a.u.).
In the case of “TCAGGTTTAACCGTCTGCGGACCATTTTTTTTCTAAACTTCGGAGTCACCTAGTGCAG”, the binding signal is reported as 8850 fluorescence intensity (a.u.).
With “TGTTGGCATGTGGTGTTTTTCCTTGACCCTGCTTGCAGATCGGAGTCACCTAGTGCAG” the binding signal was 9170 fluorescence intensity (a.u.).
